Among all 320,000 compounds or so, about 2,100 (0.66%) were called active. The inconclusive results got no clear call from the source; some entries with a clear call stand among them for comparison. The call rests on the fitted dose curve; in most records, active means well fitted inhibition curve with a large enough effect in the signal ratio, with a control signal flat (not every such curve was filed as active); inconclusive means small, poorly fitted or top-dose-only effect, or effect the other way, or a change in a side signal; inactive means flat fitted curve, though single readings scatter; the % refers to the signal ratio. Potencies of inconclusive entries are doubtful fits and often do not repeat.
Assay: qHTS Assay for Lipid Storage Modulators in Drosophila S3 Cells
Settings: BODIPY lipid droplet fluorescence, 18-24 h, cells fed with added oleic acid; lipid storage change, negative = inhibition: at 46.1 µM (top of the series) unless noted
In short: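 Drosophila S3 cells loaded with oleic acid (400 uM, as added) and compounds at several concentrations; lipid droplets imaged by 488-nm laser-scanning cytometry, 500–530 nm intensity and object ratio to cell channel. Percent activity normalized to 20 uM Triacsin C.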
On the % scale 0 is the no-effect control and ±100 the full control effect; potency means the concentration at half of the fitted maximal effect.

SMILES	Potency	lipid storage change, negative = inhibition
O=C(OCc1cccc(Cl)c1)c1cc(S(=O)(=O)N2CCCCC2)ccc1N1CCOCC1	inconclusive: 29.1 µM [activator, single point]	
COc1ccc(NC(=O)Cn2c(-c3ccc(OC)cc3)cn(-c3ccc(C)cc3)c2=O)cc1	inconclusive: 6.51 µM [activator, partial curve]	
O=C(CC1(O)C(=O)N(Cc2ccccc2)c2ccccc21)c1ccncc1 (stereo not drawn)		inconclusive: 115%
CN1C(=O)CSC1=Nc1cccc(C(=O)O)c1		inconclusive: 18.1%
COc1ccc(C(=O)Nc2cccc(-c3ccc(N4CCOCC4)nn3)c2)cc1	inconclusive: 9.2 µM [falling, single point]	
COc1ccc([N+](=O)[O-])cc1NCC(=O)Nc1cccc(S(=O)(=O)N2CCCC2)c1		inconclusive
CCOC(=O)c1ccc(NC(=O)Cn2c(C)nc3c(sc(=S)n3CC)c2=O)cc1		inconclusive: 23.8%
CCOC(=O)[C@H]1[C@H]2COc3ccc(Cl)cc3[C@@H]2N2C(=O)c3ccc(C)cc3NC(=O)[C@@]12C		inconclusive: 15.5%
CCOc1ccc(-c2c(C(=O)N/N=C/c3cccs3)nnn2-c2nonc2N)cc1		inconclusive: -20.2%
O=C(CSc1nnc(-c2cccnc2)o1)OC1CCCCC1	inconclusive: 29.1 µM [cytotoxic, single point]	
O=C(N/N=C/c1cc(Br)c(O)c(Br)c1)C1CC1	inconclusive: 29.1 µM [falling, single point]	
Cc1ccccc1C[n+]1cccc2ccccc21		inconclusive: 0.784%
Cc1ccc(Cl)c(OC(=O)Cn2cnc3c2c(=O)n(C)c(=O)n3C)c1		inconclusive: 9.17%
Cc1ccc(NC(=S)/C(=C(\[O-])c2ccc(F)cc2)[n+]2ccccc2)cc1	inconclusive: 0.082 µM [activator, full curve, poor fit]	
NC(=S)NNC(=O)C12CC3CC(CC(C3)C1)C2		inconclusive: 34.6% [activator]
CC(C)CN1CCC(=O)N(CCSc2ccccc2)CC1		inconclusive: -6.09%
S=C(NCC1CCCO1)NC12CC3CC(CC(C3)C1)C2 (stereo not drawn)		inactive
Cc1ccc(S(=O)(=O)CC(=O)NC(C)c2ccccc2)cc1 (stereo not drawn)	inconclusive: 18.4 µM [activator, partial curve, poor fit]	
CCN(CC)CCNC(=S)Nc1ccc2nc(N3CCN(CC)CC3)cc(C)c2c1		inconclusive: 86.3%
CC1(C)CC(CC(=O)O)C(=O)O1 (stereo not drawn)	inconclusive: 13 µM [falling, partial curve, poor fit]	
Cc1ccc(OCC(=O)N(Cc2nnc(-c3ccccc3Cl)o2)C2CC2)cc1C	inconclusive: 4.61 µM [activator, single point]	
CSc1ncccc1C(=O)OCC(=O)N1CCOCC1		inconclusive: -14.7%
O=C(COc1ccccc1Cl)NNC(=O)c1ccc2nc[nH]c2c1		inconclusive
O=[N+]([O-])c1cccc(Nc2c([N+](=O)[O-])ccc3nonc23)c1	inconclusive: 16.4 µM [falling, single point]	

One compound at a time (already shown):
`CN1C(=O)CSC1=Nc1cccc(C(=O)O)c1` in the list: lipid storage change, negative = inhibition: inconclusive: 18.1%
`CC1(C)CC(CC(=O)O)C(=O)O1` (stereo not drawn) in the list: Potency: inconclusive: 13 µM [falling, partial curve, poor fit]
`Cc1ccc(S(=O)(=O)CC(=O)NC(C)c2ccccc2)cc1` (stereo not drawn) in the list: Potency: inconclusive: 18.4 µM [activator, partial curve, poor fit]
`S=C(NCC1CCCO1)NC12CC3CC(CC(C3)C1)C2` (stereo not drawn) in the list: lipid storage change, negative = inhibition: inactive

Following part

SMILES	Potency	lipid storage change, negative = inhibition
COC(=O)CSc1ccccc1C(=O)OC		inconclusive: 39.4%
COc1ccc(C2=NOC(C(=O)Nc3c(C)n(C)n(-c4ccccc4)c3=O)C2)cc1OC (stereo not drawn)		inconclusive: -65.2%
CC(=O)c1cnc(-c2ccccc2)s1		inconclusive: -3.77%
O=C(O)c1ccc(-c2nnc(-c3ccc([N+](=O)[O-])cc3)o2)cc1		inconclusive: -4.07%
CCC(=O)Nc1sc(C(=O)N2CCCCC2)c(C)c1C#N	inconclusive: 3.66 µM [activator, partial curve, poor fit]	
CN(c1ccc(C(=O)N2CCCCCC2)cc1)S(=O)(=O)c1ccccc1	active: 5.17 µM	
CNC(=O)c1ccsc1NC(=O)CS(=O)(=O)c1ccccc1		inconclusive
O=C(NCC1CCCO1)c1ccccc1S(=O)(=O)c1ccc([N+](=O)[O-])cc1 (stereo not drawn)	inconclusive: 1.3 µM [falling, partial curve]	
Cc1ccc(C(=O)NCCn2c(N)c(C#N)c3nc4ccccc4nc32)cc1		inconclusive: -5.11%
COc1ccc2[nH]c(C(=O)NCCN3CCCCC3)cc2c1		inconclusive: -9.78%
COc1ccccc1CCNC(=O)c1ccc2nc[nH]c2c1		inconclusive: -17.2%
COc1ccc(S(=O)(=O)N(C)c2ccc(C(=O)N3CCC(C(N)=O)CC3)cc2)cc1OC		inconclusive: -0.508% [cytotoxic]
COc1cccc(NC(=O)CN(C)C(=O)c2ccc(COc3ccccc3)cc2)c1		inconclusive: 2.46%
Cc1onc(-c2ccccc2)c1C(=O)N/N=C/c1cc(Br)c(O)c(Br)c1	inconclusive: 5.8 µM [activator, full curve]	
CCCCC(=O)Nc1ccc2c(c1)nc(CCN1CCN(C)CC1)n2C		inconclusive: -5.89%
CCCN(CC(=O)Nc1ccccc1OC)C(=O)CSc1nc(C)cc(C)n1	inconclusive: 2.31 µM [falling, partial curve]	
Fc1ccc(NC(=S)N2CCOCC2)c(F)c1		inconclusive: 21.3%
Cc1cccc(C(=O)OC(C)CN2CCCC2)c1 (stereo not drawn)	inconclusive: 1.16 µM [falling, partial curve, poor fit]	
CCOC(=O)NNC(=O)c1ccc(Cl)cc1		inconclusive: 14.1%
Cc1cccc(NC(=O)NNC(=O)c2c(Cl)c(C)nn2C)c1		inconclusive: -8.73%
O=C(CSc1nnc(CCCN2C(=O)c3cccc4cccc(c34)C2=O)n1-c1ccccc1)N1CCN(CCO)CC1	inconclusive: 8.2 µM [activator, partial curve]	
Cc1ccc(C(=O)Nc2ccc(NC(=O)c3ccco3)c(C)c2)cc1	inconclusive: 25.9 µM [falling, single point]	
Cc1ccc(C(=O)N2c3ccccc3NC(=O)C2C)cc1 (stereo not drawn)		inconclusive: -32.3%
CC1=C(C(=O)O)N2C(=O)C(NC(=O)c3ccc(F)cc3)C2SC1 (stereo not drawn)	inconclusive: 11.6 µM [activator, partial curve]	
